This is one part of the list.
System: T1, CTL2-GFP (C. trachomatis L2/434/Bu, GFP-expressing)
T1 construct: L2/434/Bu, GFP-expressing
Set-up: species or system HeLa; Intracellular C. trachomatis growth in HeLa cells, bulk GFP fluorescence relative to DMSO
Conditions: bulk GFP, single well; 28.5 h, 10 µM; inhibitor

Compound | % of control remaining
COc1ccc2c(c1OC)C(=O)N1c3ccccc3COC21 (stereo not shown) [CBK109960] | 56.6834%
Cc1cc(C[C@@H]2COC[C@H]2NCc2ccccc2Cl)on1 [CBK282969] | 126.958%
O=C(CN1CCCCC1)Nc1sc2c(c1C(=O)Nc1ccccc1)CCCC2 [CBK267974] | 99.0465%
COC(=O)c1ccc(NC(=S)NC(=O)c2cncc(Br)c2)cc1 [CBK099257] | 118.745%
CCC(/C=C1\Sc2ccccc2N1CCCS(=O)(=O)[O-])=C\c1oc2ccc(OC)cc2[n+]1C [CBK261080] | 96.8057%
CC(=O)Oc1cccc(NC(=O)CC2Sc3ccccc3NC2=O)c1 (stereo not shown) [CBK261792] | 113.377%
COc1ccc2c(c1)C1(CC(=O)N(Cc3ccccc3)C1=O)C(=O)N2Cc1ccccc1 (stereo not shown) [CBK075228] | 110.679%
Cn1/c(=N\C(=O)c2cccs2)sc2cc(Br)ccc21 [CBK018873] | 162.846%
O=C(O)COc1ccc(NC(=O)c2ccc3c(c2)C(=O)N(C2CCCCC2)C3=O)cc1 [CBK266009] | 213.741%
COc1cc(NC(=O)c2ccccc2)c(C(=O)O)cc1OC [CBK227754] | 117.309%
CCN(CC)C(=O)N1CCN(Cc2cccc(OC)c2)C[C@@H]1C [CBK284268] | 84.9172%
Cc1c(C(=O)O)cccc1N1C(=O)c2ccc([N+](=O)[O-])cc2C1=O [CBK262724] | 74.9508%
CS(=O)(=O)N(CC(=O)Nc1ccc(S(=O)(=O)N2CCCCCC2)cc1)c1ccc(F)cc1 [CBK266932] | 155.237%
Cn1ccc(C(=O)NC(Cc2cccs2)c2nccs2)n1 (stereo not shown) [CBK285135] | 108.892%
Cn1ccnc1C1(O)C2CCCC1CN(Cc1ccccc1F)C2 (stereo not shown) [CBK285206] | 110.142%
Cc1cc(Cl)cc(Br)c1OCCNCCN1CCOCC1 [CBK268615G] | 103.051%
COC(=O)CNC(c1cc(Br)ccc1N)c1ccccc1Cl (stereo not shown) [CBK262605] | 100%
CC(C)(CN)CN(Cc1ccccc1Br)C(=O)NCc1ccc(F)cc1 [CBK002469C] | 115.505%
Cc1ccc(N)c(C(=O)CCCCC(=O)O)c1 [CBK260970] | 107.888%
Cc1noc(C)c1CN1CCC(c2ccccc2)CC1 [CBK306001] | 115.655%
CC(C)(C)OC(=O)N1CCC[C@@H]([C@H](O)c2nccs2)C1 [CBK284283] | 91.1404%
Cc1c(C)[n+]([O-])c2cc(N3CCN(C)CC3)c(Cl)cc2[n+]1[O-] [CBK263503] | 115.248%
Cc1cccc(C)c1OCC(=O)N1CCC(c2cc(C(=O)NC(C)C)c3ccccc3n2)C1 (stereo not shown) [CBK285916] | 93.8398%
CC(C(=O)NC1(C#N)CCCCC1)N1CCOC(CN(C)C)C1 (stereo not shown) [CBK305155] | 78.8723%
Cc1cc(N2CCOCC2)c2c(N)c(C)cc(C)c2n1 [CBK126908] | 148.99%
CCc1noc(C(C)N2CCN(CC(=O)NCc3ccco3)CC2)n1 (stereo not shown) [CBK305368] | 91.1083%
O=C(c1ccccc1)n1cc(-c2ccccn2)c(N2CCOCC2)n1 [CBK021010] | 110.211%

Compound | % of control remaining
COc1ccc(/C=C/c2nc(C#N)c(NCc3cccnc3)o2)cc1OC [CBK269240] | 107.273%
OC1(c2cccnc2)C2CCCC1CN(Cc1cccc(F)c1F)C2 (stereo not shown) [CBK285205] | 60.9866%
Cc1nc(C)c(C(=O)N2CCc3[nH]c4ccccc4c3C2)o1 [CBK281873] | 94.7767%
O=C(NCC1CCCCC1)N1CCN(c2ccc(F)cc2)CC1 [CBK156397] | 126.828%
Oc1ccc(/C=N/Nc2nncc(-c3ccccc3)n2)c(O)c1O [CBK262492] | 58.496%
Oc1ccc(CN2CCN(c3ncccn3)CC2)cc1 [CBK261567] | 94.8174%
CC(=O)NCCNC(=O)c1cc(Br)c[nH]1 [CBK297767] | 120.816%
O=C(c1cccc(NS(=O)(=O)c2cc(F)c(Br)cc2F)c1)N1CCOCC1 [CBK039007] | 109.205%
Cc1csc2ncnc(NCCc3ccccn3)c12 [CBK017060] | 105.245%
Cc1nc(C2CN(Cc3c(Cl)ccc4cccnc34)CCO2)no1 (stereo not shown) [CBK305317] | 117.582%
CC1(C)CC(=NNC(=O)CCc2cc(C(C)(C)C)c(O)c(C(C)(C)C)c2)CC(C)(C)N1 [CBK261952] | 98.0995%
O=C(O)c1cccc(-n2c(S)nnc2-c2ccc3ccccc3n2)c1 [CBK265810] | 108.673%
O=C(N/N=C/c1cc(Br)cc(Br)c1O)C(Oc1ccccc1)Oc1ccccc1 [CBK262164] | 116.189%
O=C(Nc1cnc(-c2cccc(C(F)(F)F)c2)c(-c2cccnc2)n1)c1cc(-c2ccco2)n[nH]1 [CBK036878] | 125.2%
Cc1cc2c(s1)c1cnn(CC(=O)N(C)C)c(=O)c1n2C [CBK284231] | 116.683%
COc1ccc(Nc2nc(-c3cccnc3)cs2)c(OC)c1 [CBK126814] | 122.013%
OCC1CCCN1c1nc(-c2ccc(Oc3ccccc3)cc2)cn2ccnc12 (stereo not shown) [CBK066713] | 162.592%
CN1CCCC(OC(=O)C2CCCCC2)C1 (stereo not shown) [CBK090234] | 108.252%
COc1cc(C(=O)N2CCN(S(=O)(=O)c3ccccc3[N+](=O)[O-])CC2)cc(OC)c1OC [CBK264182] | 125.54%
Cn1cc(C2CNCCN2C(=O)CCCc2csc3ccccc23)cn1 (stereo not shown) [CBK304274C] | 132.463%
CN(C)CCN1CCN(c2nc(-c3ccc(S(C)(=O)=O)cc3)cnc2N)CC1 [CBK063457] | 111.695%
CNC(=O)c1sc2ccccc2c1C1CCN(C(=O)CCN(C)c2ccc(F)cc2)C1 (stereo not shown) [CBK285878] | 98.7405%
N#Cc1nonc1NCn1nnc2ccccc21 [CBK062650] | 120.908%
O=C(c1cc(-c2ccccn2)n[nH]1)N1CCC(c2ccccc2)C1 (stereo not shown) [CBK281852] | 139.091%
OCC1CCCCC1NCCCC(c1ccc(F)cc1)c1ccc(F)cc1 (stereo not shown) [CBK015830C] | 137.723%
CC(C)CC(C(=O)Nc1ccc(Br)cc1)N1C(=O)c2ccccc2C1=O (stereo not shown) [CBK264253] | 92.0005%
Cc1ccc(S(=O)(=O)N(CC(=O)Nc2cccnc2)c2cccc([N+](=O)[O-])c2)cc1 [CBK266404] | 101.303%

Individual results from above:
Entry for OCC1CCCN1c1nc(-c2ccc(Oc3ccccc3)cc2)cn2ccnc12 (stereo not shown) [CBK066713] under % of control remaining: 162.592%
Entry for CC(C)(C)OC(=O)N1CCC[C@@H]([C@H](O)c2nccs2)C1 [CBK284283] under % of control remaining: 91.1404%
Entry for COc1cc(NC(=O)c2ccccc2)c(C(=O)O)cc1OC [CBK227754] under % of control remaining: 117.309%

Further records follow.

Compound | % of control remaining
NC(=O)c1ccc(-c2cc(Nc3ccc(CCO)cc3)ncn2)cc1 [CBK090773] | 110.252%
COc1ccccc1CNCc1ccc(CNC(=O)OC(C)(C)C)cc1 [CBK056702] | 100.097%
Cc1nc(CC(=O)Nc2nn(C)c3cccc(N4CCOCC4)c23)cs1 [CBK306627] | 126.592%
O=C(Cn1cc(-c2ccc(CN3CCOCC3)cc2)nn1)NCc1cccc(C(F)(F)F)c1 [CBK165803] | 123.604%
O=C(CN1CCC(C(O)C(=O)NC2CC2)CC1)Nc1cc(Cl)ccc1F (stereo not shown) [CBK305477] | 150.457%
Cc1nnc(CN(C)C2CCN(Cc3ccc4c(c3)CCC4)C2)n1C (stereo not shown) [CBK304450] | 109.551%
COc1ccc(C2c3ccccc3C[N+]3(C)CCCN23)cc1 (stereo not shown) [CBK008769] | 98.8046%
Clc1ccccc1CSc1nnc2c(n1)OC=Nc1ccccc1-2 [CBK265085] | 121.419%
c1ccc(Nc2nc(-c3ccco3)cn3ccnc23)cc1 [CBK037947] | 167.083%
CC(C)OCC(O)C[S+]([O-])Cc1ccccc1 (stereo not shown) [CBK261761] | 118.852%
CC(C)(C)OC(=O)N(Cc1cccs1)S(C)(=O)=O [CBK019338] | 159.647%
Cc1c(Cl)cccc1S(=O)(=O)Nc1ccc(C(=O)O)cc1 [CBK034050] | 96.8235%
O=S(=O)(Nc1nncs1)c1ccccc1 [CBK045489] | 121.265%
CC(C)(CN)CN(Cc1cccc2ccccc12)C(=O)NC1C[C@H]1c1ccccc1 (stereo partly shown) [CBK000490C] | 65.9752%
CCOc1ccc(Nc2cc(Cl)nc(N)n2)cc1 [CBK288069] | 86.0106%
CC(NC(=O)N1CCCCC1CO)c1ccccc1 (stereo not shown) [CBK155988] | 122.757%
COc1cc(C(c2c(C)n(C)n(-c3ccccc3)c2=O)c2c(C)n(C)n(-c3ccccc3)c2=O)ccc1O [CBK261690] | 87.0465%
CCOc1ccccc1Nc1nc(N)nc(CN2CCCCC2C)n1 (stereo not shown) [CBK266548] | 155.337%
Cc1ncsc1CCC(=O)NCC1CCN(c2ccccc2F)C1 (stereo not shown) [CBK304675] | 67.2735%
Cc1cc(C)n(CCCNC(=O)Cc2csc(N3CCCC3=O)n2)n1 [CBK305708] | 101.398%
N#Cc1cccc(S(=O)(=O)Nc2ccc(-c3nnn[nH]3)cc2)c1 [CBK155427] | 121.079%
CC(C)(C)c1ccc(-c2nc(Nc3cccc(C(=O)O)c3)c3ccccc3n2)cc1 [CBK265229C] | 92.95%
O=C(O)C1CCCCC1C(=O)N1CCN(Cc2cccc(Cl)c2)CC1 (stereo not shown) [CBK270330] | 127.922%
COC(=O)Nc1ccc(S(=O)(=O)N2CCCC(C(=O)Nc3cccc(C(F)(F)F)c3)C2)cc1 (stereo not shown) [CBK265248] | 71.5547%
CN1CCC(N(C)Cc2ccc3c(c2)OCO3)CC1 [CBK261564] | 118.777%

From publication PMC12040169 (PLOS Biology, 2025)
